According to patent US8309550B2, “Kinase inhibitors and their use as pharmaceutical agents” (Shanghai Genomics, Inc., priority 2011, dated 2012):
Entries after “also recorded” stand apart in the source; their conditions may differ. For at least one compound, name, drawing or mass did not settle the structure.

How the values were obtained:
[1] = test system: Xenograft tumor models (HT-29, H460, Molt-4, PC-3M, HL60); test: Xenograft studies with human tumor cell lines; format: in vivo, BALB/c nude mice; details: i.p, qd, 21 days, dosage from 12.5 mg/kg to 100 mg/kg; significant with p<0.05 (T-test)
Protocol: Female BALB/c nude mice from SHANGHAI SLAC LABORATORY ANIMAL CO with age of 5 to 6 weeks and body weight of 19 to 20 g were used in the study. Autoclaved water and irradiated food were provided ad libitum, and animals were maintained on a 12-hour light and 12-hour dark cycle. Cages, bedding, and water bottles were autoclaved before use and changed weekly. The health of all animals was determined by daily gross observation of experimental animals, and analyses of blood samples of sentinel animals housed on shared shelf racks. All animals were allowed to acclimate and recover from any shipping-related stress for a minimum of 72 hours before experimental use. All animal experiments were conducted according to the guidelines of Chinese.
Xenograft tumor models were established with human tumor cell lines. […] Tumor growth was monitored twice per week until the tumor reached to a volume of 100 mm^3. […]
Mortality checks were conducted daily. Body weight of the mice was determined twice a week. […] Weight loss was calculated as percentage change in mean group body weight using the following formula: [(W−W0)/W0]×100, where ‘W’ represents mean body weight of the treated group at a particular day and ‘W0’ represents mean body weight of the same treated group at initiation of treatment. Tumor volumes (in mm3) were calculated after 21 days drug administration. […]

MCF-7 cells = test: Cell apoptosis assay (TUNEL, PARP Western blot); format: cell-based, Human; details: 48 hours
[2] = test system: CDK9's activity on Pol II phosphorylation; test: Western blot of Pol II phosphorylation in MCF-7 cells; format: cell-based, Human; details: 48 hours
lung carcinoma (H460) = test: Inhibition of tumor growth, NCI-H460 in SCID-bg mice; format: in vivo; details: 150 mg/kg after oral administration
Protocol: Tumor type: lung carcinoma (H460)
Treatment: Single PO dose for 21 days (starting at day 7 following tumor inoculation)
Endpoint: tumor volume and mean luciferase activity by Xenogen (Caliper) machine:
SCID-bg mice were implanted with NCI-H460 cells at 5×10^6 cells/mouse on Day 0. Compound 18 treatment began on Day 7. […] In model group, the vehicle was used instead of compound 18. Tumor volume and mean luciferase activity by Xenogen technology were measured once per there days.

rabbit neutrophils = test: Induction of neutrophil apoptosis (Annexin-V and PI staining); format: cell-based

With `CCn1cc(-c2ccnc(Nc3cccc(S(N)(=O)=O)c3)n2)c2cccnc21` [Compound 18, 3-(4-(1-Ethyl-1H-pyrrolo[2,3-b]pyridin-3-yl)pyrimidin-2-ylamino)benzenesulfonamide] the “anti-tumor activities in xenograft mice” value [1] was “showed anti-tumor activities”, the “cell apoptosis (TUNEL assay, PARP Western blot)” value (MCF-7 cells) was “induced apoptosis of cells; also recorded: induced cell apoptosis with dose-dependent manner” and the “CDK9's activity on Pol II phosphorylation (Western blot)” value [2] was “inhibited CDK9's activity on Pol II phosphorylation; also recorded: inhibited CDK9's activity on Pol IIphosphorylation”. The “tumor growth inhibition via apoptosis induction (in words)” value (lung carcinoma (H460)) was “It showed that compound 18 was able to inhibit turmor growth via apoptosis induction at 150 mg/kg after oral administration”, the “capability in inducing neutrophil apoptosis compared with Roscovitine” value (rabbit neutrophils; 15 h, compound 18 0.5, 2, 10 μM, Roscovitine 20 μM) was “stronger capability in inducing neutrophil apoptosis than Roscovitine” and the “apoptotic morphological changes of neutrophils” value (rabbit neutrophils; increasing dose (0.5, 2, 10 μM)) was “typical apoptotic morphological changes”.
